Values from PubChem BioAssay AID1259405 (NCATS, 2018).

- Test: 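Silenced genes that increase secreted GFP made by CHO cells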 (primary screen)
- Cells: Chinese hamster CHO-K1 ovary cells with stable secreted eGFP expression
- Reagent: single siRNA against mouse genes, 0.8 pmol siRNA per well (2 µl of 400 nM stock)
- Time to read-out: 3 days
- Read-out: 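Per-well intracellular GFP measured by laser scanning cytometry, plus viability from ATP luminescence, each relative to plate median of non-targeting control wells, in %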
- Direction: GFP, % of control: higher = more GFP per well, higher productivity; viability (ATP), % of control: higher = more viable cells (more ATP)
- Rule for the call: 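a knock-down is called active if GFP reaches 120% or more of non-targeting control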
Shown is a random part of about 50,000 reagents. In the full data, about 4,000 (8%) are marked active. 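Mouse siRNA library applied to hamster cells; one well for each siRNA.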 The numbers tell different reagents against one gene apart.

With Vnn3 (vanin 3) #1, how do the results read?
GFP, % of control: 54.2; viability (ATP), % of control: 90.3; activity call: inactive

With Vnn3 (vanin 3) #2, what was measured?
GFP, % of control: 81.9; viability (ATP), % of control: 117; activity call: inactive

What did the screen give for Vnn3 (vanin 3) #3?
GFP, % of control: 44; viability (ATP), % of control: 45.8; activity call: inactive

How did the screen score Or4c122 (olfactory receptor family 4 subfamily C member 122) #1?
GFP, % of control: 37.8; viability (ATP), % of control: 43.6; activity call: inactive

How did the screen score Or4c122 (olfactory receptor family 4 subfamily C member 122) #2?
GFP, % of control: 108; viability (ATP), % of control: 64.1; activity call: inactive

With Or4c122 (olfactory receptor family 4 subfamily C member 122) #3, what does the deposit list?
GFP, % of control: 93.8; viability (ATP), % of control: 105; activity call: inactive

For Czib (CXXC motif containing zinc binding protein) #1, how do the results read?
GFP, % of control: 86.7; viability (ATP), % of control: 97.8; activity call: inactive

With Czib (CXXC motif containing zinc binding protein) #2, what was measured?
GFP, % of control: 82.1; viability (ATP), % of control: 53; activity call: inactive

What is on record for Czib (CXXC motif containing zinc binding protein) #3?
GFP, % of control: 72.2; viability (ATP), % of control: 75.9; activity call: inactive

With Lilrb4a #1, what was measured?
GFP, % of control: 76.5; viability (ATP), % of control: 45.4; activity call: inactive

With Lilrb4a #2, what was measured?
GFP, % of control: 149; viability (ATP), % of control: 106; activity call: active

For Lilrb4a #3, what was measured?
GFP, % of control: 107; viability (ATP), % of control: 73.5; activity call: inactive

What is on record for F11 (coagulation factor XI) #1?
GFP, % of control: 82.1; viability (ATP), % of control: 105; activity call: inactive

For F11 (coagulation factor XI) #2, how do the results read?
GFP, % of control: 108; viability (ATP), % of control: 71.2; activity call: inactive

With F11 (coagulation factor XI) #3, what does the deposit list?
GFP, % of control: 55.3; viability (ATP), % of control: 36.3; activity call: inactive

How did the screen score Moap1 (modulator of apoptosis 1) #1?
GFP, % of control: 25.2; viability (ATP), % of control: 33; activity call: inactive

With Moap1 (modulator of apoptosis 1) #2, what does the deposit list?
GFP, % of control: 73.7; viability (ATP), % of control: 67.7; activity call: inactive

How did the screen score Moap1 (modulator of apoptosis 1) #3?
GFP, % of control: 55.4; viability (ATP), % of control: 73.3; activity call: inactive

How did the screen score Lemd2 (LEM domain containing 2) #1?
GFP, % of control: 56.1; viability (ATP), % of control: 78.5; activity call: inactive

For Lemd2 (LEM domain containing 2) #2, what was measured?
GFP, % of control: 71.6; viability (ATP), % of control: 104; activity call: inactive

With Lemd2 (LEM domain containing 2) #3, what was measured?
GFP, % of control: 57.4; viability (ATP), % of control: 82; activity call: inactive

A portion from the list above, as a working copy:
Or4c122 (olfactory receptor family 4 subfamily C member 122) #3: GFP, % of control = 93.8; viability (ATP), % of control = 105; activity call = inactive
Czib (CXXC motif containing zinc binding protein) #1: GFP, % of control = 86.7; viability (ATP), % of control = 97.8; activity call = inactive
Czib (CXXC motif containing zinc binding protein) #2: GFP, % of control = 82.1; viability (ATP), % of control = 53; activity call = inactive
Czib (CXXC motif containing zinc binding protein) #3: GFP, % of control = 72.2; viability (ATP), % of control = 75.9; activity call = inactive
Lilrb4a #1: GFP, % of control = 76.5; viability (ATP), % of control = 45.4; activity call = inactive
Lilrb4a #2: GFP, % of control = 149; viability (ATP), % of control = 106; activity call = active
Lilrb4a #3: GFP, % of control = 107; viability (ATP), % of control = 73.5; activity call = inactive
F11 (coagulation factor XI) #1: GFP, % of control = 82.1; viability (ATP), % of control = 105; activity call = inactive
F11 (coagulation factor XI) #2: GFP, % of control = 108; viability (ATP), % of control = 71.2; activity call = inactive

Further results follow:
How did the screen score Pramel52-ps (PRAME like 52, pseudogene) #1?
GFP, % of control: 68.3; viability (ATP), % of control: 67.2; activity call: inactive

How did the screen score Pramel52-ps (PRAME like 52, pseudogene) #2?
GFP, % of control: 31.4; viability (ATP), % of control: 55.4; activity call: inactive

With Pramel52-ps (PRAME like 52, pseudogene) #3, how do the results read?
GFP, % of control: 42; viability (ATP), % of control: 76.1; activity call: inactive

With Ankrd48 (ankyrin repeat domain 48) #1, what does the deposit list?
GFP, % of control: 46.2; viability (ATP), % of control: 65.1; activity call: inactive

What did the screen give for Ankrd48 (ankyrin repeat domain 48) #2?
GFP, % of control: 71.7; viability (ATP), % of control: 90; activity call: inactive

What did the screen give for Ankrd48 (ankyrin repeat domain 48) #3?
GFP, % of control: 96.1; viability (ATP), % of control: 45.8; activity call: inactive

With Or8g27 (olfactory receptor family 8 subfamily G member 27) #1, how do the results read?
GFP, % of control: 79.6; viability (ATP), % of control: 52.5; activity call: inactive

How did the screen score Or8g27 (olfactory receptor family 8 subfamily G member 27) #2?
GFP, % of control: 40; viability (ATP), % of control: 41; activity call: inactive

For Or8g27 (olfactory receptor family 8 subfamily G member 27) #3, what was measured?
GFP, % of control: 80.2; viability (ATP), % of control: 60.1; activity call: inactive

How did the screen score D2hgdh (D-2-hydroxyglutarate dehydrogenase) #1?
GFP, % of control: 54.1; viability (ATP), % of control: 79.3; activity call: inactive

What did the screen give for D2hgdh (D-2-hydroxyglutarate dehydrogenase) #2?
GFP, % of control: 55.9; viability (ATP), % of control: 51.9; activity call: inactive

For D2hgdh (D-2-hydroxyglutarate dehydrogenase) #3, how do the results read?
GFP, % of control: 92.6; viability (ATP), % of control: 87.2; activity call: inactive

What did the screen give for Dnase2a (deoxyribonuclease II alpha) #1?
GFP, % of control: 147; viability (ATP), % of control: 86.1; activity call: active

Which result is listed for Dnase2a (deoxyribonuclease II alpha) #2?
GFP, % of control: 62.6; viability (ATP), % of control: 84.7; activity call: inactive

For Dnase2a (deoxyribonuclease II alpha) #3, what does the deposit list?
GFP, % of control: 79.1; viability (ATP), % of control: 69.2; activity call: inactive

For Tmed2 (transmembrane p24 trafficking protein 2) #1, what was measured?
GFP, % of control: 72.4; viability (ATP), % of control: 75; activity call: inactive

Which result is listed for Tmed2 (transmembrane p24 trafficking protein 2) #2?
GFP, % of control: 89.6; viability (ATP), % of control: 76.3; activity call: inactive

What is on record for Tmed2 (transmembrane p24 trafficking protein 2) #3?
GFP, % of control: 74.1; viability (ATP), % of control: 86; activity call: inactive

For Cpa2 (carboxypeptidase A2, pancreatic) #1, how do the results read?
GFP, % of control: 97.2; viability (ATP), % of control: 90.7; activity call: inactive

What did the screen give for Cpa2 (carboxypeptidase A2, pancreatic) #2?
GFP, % of control: 39.4; viability (ATP), % of control: 44.6; activity call: inactive

Which result is listed for Cpa2 (carboxypeptidase A2, pancreatic) #3?
GFP, % of control: 80.2; viability (ATP), % of control: 83.3; activity call: inactive

For Mslnl (mesothelin-like) #1, how do the results read?
GFP, % of control: 64.3; viability (ATP), % of control: 66.2; activity call: inactive

For Mslnl (mesothelin-like) #2, what does the deposit list?
GFP, % of control: 54; viability (ATP), % of control: 46.2; activity call: inactive

For Mslnl (mesothelin-like) #3, what does the deposit list?
GFP, % of control: 82.6; viability (ATP), % of control: 79.7; activity call: inactive

How did the screen score Icos (inducible T cell co-stimulator) #1?
GFP, % of control: 55.5; viability (ATP), % of control: 71.5; activity call: inactive

With Icos (inducible T cell co-stimulator) #2, how do the results read?
GFP, % of control: 69.8; viability (ATP), % of control: 73.7; activity call: inactive

For Icos (inducible T cell co-stimulator) #3, what does the deposit list?
GFP, % of control: 117; viability (ATP), % of control: 98.7; activity call: inactive

How did the screen score Vmn1r227 (vomeronasal 1 receptor 227) #1?
GFP, % of control: 62.7; viability (ATP), % of control: 39.3; activity call: inactive

Which result is listed for Vmn1r227 (vomeronasal 1 receptor 227) #2?
GFP, % of control: 84.5; viability (ATP), % of control: 79.2; activity call: inactive

With Vmn1r227 (vomeronasal 1 receptor 227) #3, how do the results read?
GFP, % of control: 52.3; viability (ATP), % of control: 53.2; activity call: inactive

How did the screen score Plch2 (phospholipase C, eta 2) #1?
GFP, % of control: 109; viability (ATP), % of control: 79; activity call: inactive

With Plch2 (phospholipase C, eta 2) #2, how do the results read?
GFP, % of control: 88.7; viability (ATP), % of control: 92.7; activity call: inactive

Which result is listed for Plch2 (phospholipase C, eta 2) #3?
GFP, % of control: 88.7; viability (ATP), % of control: 69.2; activity call: inactive
